# Results reported in PMC12533952.
# By UniProt entry, the sequences of proteins in these tests, tags left out. Where a name states a change or a piece, a line headed by the entry shows the natural chain unless it says otherwise.
# UniProt P52294: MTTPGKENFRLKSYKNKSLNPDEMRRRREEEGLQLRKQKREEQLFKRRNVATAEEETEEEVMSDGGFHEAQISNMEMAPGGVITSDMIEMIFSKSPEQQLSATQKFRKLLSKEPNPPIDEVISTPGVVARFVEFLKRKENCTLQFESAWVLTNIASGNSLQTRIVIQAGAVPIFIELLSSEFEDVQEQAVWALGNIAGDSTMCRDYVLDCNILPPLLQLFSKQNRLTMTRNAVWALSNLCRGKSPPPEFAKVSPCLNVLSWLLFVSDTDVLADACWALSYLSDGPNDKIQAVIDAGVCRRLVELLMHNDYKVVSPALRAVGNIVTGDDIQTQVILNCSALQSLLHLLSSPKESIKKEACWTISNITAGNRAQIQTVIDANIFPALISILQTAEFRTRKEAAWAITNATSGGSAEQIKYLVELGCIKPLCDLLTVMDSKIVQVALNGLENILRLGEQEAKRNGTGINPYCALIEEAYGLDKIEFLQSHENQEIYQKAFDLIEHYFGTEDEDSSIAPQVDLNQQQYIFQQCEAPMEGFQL
# UniProt Q14974: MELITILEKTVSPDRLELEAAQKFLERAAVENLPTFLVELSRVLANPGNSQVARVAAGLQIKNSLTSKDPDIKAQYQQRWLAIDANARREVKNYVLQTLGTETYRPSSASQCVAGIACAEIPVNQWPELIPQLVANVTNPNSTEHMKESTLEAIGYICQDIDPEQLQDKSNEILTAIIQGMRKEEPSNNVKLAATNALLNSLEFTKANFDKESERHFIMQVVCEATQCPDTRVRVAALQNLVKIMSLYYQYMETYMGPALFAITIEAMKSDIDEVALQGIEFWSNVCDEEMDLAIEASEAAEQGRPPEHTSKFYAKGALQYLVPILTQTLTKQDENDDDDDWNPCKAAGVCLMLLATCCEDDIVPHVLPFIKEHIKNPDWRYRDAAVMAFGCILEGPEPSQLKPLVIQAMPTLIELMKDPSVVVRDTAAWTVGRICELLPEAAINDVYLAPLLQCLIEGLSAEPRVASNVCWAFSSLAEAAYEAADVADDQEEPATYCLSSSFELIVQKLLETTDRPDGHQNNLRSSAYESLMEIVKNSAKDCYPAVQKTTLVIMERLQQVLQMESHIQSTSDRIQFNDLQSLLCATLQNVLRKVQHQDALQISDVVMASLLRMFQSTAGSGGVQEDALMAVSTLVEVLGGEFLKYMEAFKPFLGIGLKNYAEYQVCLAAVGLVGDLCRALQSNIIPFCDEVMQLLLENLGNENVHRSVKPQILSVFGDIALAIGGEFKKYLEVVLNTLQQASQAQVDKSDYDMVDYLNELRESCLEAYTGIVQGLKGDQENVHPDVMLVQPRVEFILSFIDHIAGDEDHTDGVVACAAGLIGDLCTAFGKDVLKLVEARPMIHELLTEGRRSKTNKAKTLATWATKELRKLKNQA
# UniProt P42224: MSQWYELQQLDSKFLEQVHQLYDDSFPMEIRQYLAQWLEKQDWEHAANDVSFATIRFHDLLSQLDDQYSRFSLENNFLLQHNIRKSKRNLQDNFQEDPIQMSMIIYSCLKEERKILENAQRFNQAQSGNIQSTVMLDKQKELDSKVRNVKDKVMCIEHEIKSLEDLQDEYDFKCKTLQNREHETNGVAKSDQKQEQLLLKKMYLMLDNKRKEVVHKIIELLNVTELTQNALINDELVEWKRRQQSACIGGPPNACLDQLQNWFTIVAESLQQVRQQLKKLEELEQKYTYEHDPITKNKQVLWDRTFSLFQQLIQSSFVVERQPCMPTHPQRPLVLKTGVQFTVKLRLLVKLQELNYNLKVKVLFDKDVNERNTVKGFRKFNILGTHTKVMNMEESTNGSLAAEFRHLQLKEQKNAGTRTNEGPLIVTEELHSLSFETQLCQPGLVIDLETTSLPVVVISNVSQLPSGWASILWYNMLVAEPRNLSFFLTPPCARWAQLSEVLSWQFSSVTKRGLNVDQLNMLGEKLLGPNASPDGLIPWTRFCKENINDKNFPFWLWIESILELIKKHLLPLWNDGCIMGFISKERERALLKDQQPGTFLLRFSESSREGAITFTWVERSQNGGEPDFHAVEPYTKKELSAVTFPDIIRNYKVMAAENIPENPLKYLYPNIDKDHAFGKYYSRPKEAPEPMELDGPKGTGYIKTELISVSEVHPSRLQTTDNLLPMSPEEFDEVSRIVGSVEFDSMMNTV
# These are yes or no findings as the source states them, for the method shown. In cells and extracts the contact can be indirect. Some binding calls cover weakened binding; strength is not graded here. For some of these results: Where a sequence is shown, tags or fusion partners need not be part of it.
# Experiments:
# [1] = target: T1, HBoV1 non-structural protein NP1, Flag-tagged (human bocavirus 1 (HBoV1)) (UniProt Q3YPH5); experiment: co-IP; HEK293T cells co-transfected with NP1-Flag and Myc-tagged STAT1, KPNA proteins or their truncations; at 24 hpt lysates with anti-Flag magnetic beads overnight; Western blot
# T1 sequence: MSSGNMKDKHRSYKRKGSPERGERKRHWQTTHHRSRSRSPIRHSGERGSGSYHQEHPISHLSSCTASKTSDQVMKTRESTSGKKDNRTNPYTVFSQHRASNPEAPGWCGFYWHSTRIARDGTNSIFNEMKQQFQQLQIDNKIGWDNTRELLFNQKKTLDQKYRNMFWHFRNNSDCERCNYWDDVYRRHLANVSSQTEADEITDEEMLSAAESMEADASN
# [2] = target: Karyopherin subunit alpha-1, Myc-tagged (human) (UniProt P52294); experiment: co-IP; HEK293T cells transfected with Myc-tagged KPNA1 and HA-tagged KPNB1, with or without NP1-Flag plasmid; co-IP with anti-HA or anti-Myc antibodies
# [3] = target: T2, GST-tagged HBoV1 NP1 (human bocavirus 1 (HBoV1)) (UniProt Q3YPH5); experiment: pull-down; purified GST-NP1 on glutathione beads incubated with HEK293T cell lysate at 4°C overnight; washed three times; Western blot; only the target purified
# T2 sequence: T1 sequence
Substance,binding [1],also measured
"KPNA1 truncation, 1–114 AA region (contains the IBB domain) (from UniProt P52294 1-114) (domain or fragment)",binds,–
"KPNB1, HA-tagged (from UniProt Q14974 1-876)",–,binding [2]: binds
Karyopherin subunit alpha-1 (of HEK293T cells) (from UniProt P52294 1-538),–,binding [3]: binds
"Karyopherin subunit alpha-1, Myc-tagged (from UniProt P52294 1-538)",binds,–
"STAT1 truncation, 318–488 AA region (DNA-binding domain) (from UniProt P42224 318-488) (domain or fragment)",binds,–
Signal transducer and activator of transcription 1 (of HEK293T cells) (from UniProt P42224 1-750),–,binding [3]: binds
"Signal transducer and activator of transcription 1, Myc-tagged (from UniProt P42224 1-750)",binds,–
